PubChem BioAssay AID1439 (NMMLSC, 2008)
Hit rate of the full screen: of about 220,000 compounds, about 770 (0.35%) were called active. This list was built around the results that the source calls inconclusive (neither active nor inactive); the mix of calls is not that of the screen. Rule as the data show it: active = binding response below about 49% or above about 150%; inconclusive = no clear call, values can overlap the other calls; inactive = in between.

Sequences of proteins named here, by UniProt entry; tags and fusion partners are left off.
UniProt P09471, whole entry, looked up: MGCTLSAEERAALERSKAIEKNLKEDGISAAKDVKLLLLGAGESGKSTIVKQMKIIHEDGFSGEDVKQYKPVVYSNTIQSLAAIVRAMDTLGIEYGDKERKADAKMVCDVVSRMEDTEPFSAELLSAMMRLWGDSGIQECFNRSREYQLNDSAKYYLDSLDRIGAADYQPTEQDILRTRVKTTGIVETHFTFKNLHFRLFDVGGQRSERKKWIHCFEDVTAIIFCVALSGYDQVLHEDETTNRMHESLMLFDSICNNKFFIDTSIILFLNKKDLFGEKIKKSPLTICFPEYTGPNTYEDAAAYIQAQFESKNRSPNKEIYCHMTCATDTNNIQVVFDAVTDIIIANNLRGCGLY

Molecular target: Guanine nucleotide-binding protein G(o) subunit alpha (Homo sapiens) (UniProt P09471)
Assay: RGS7-Galphao binding modulators, primary screen, biochemical, multiplexed bead flow cytometry (AID 1439);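 also: fluorescent Galphao held in activated GDP-AlF4 state binding bead-coupled RGS7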
Conditions: at 10 µM, actives lie on both sides

Compound	binding response (% of control)
CC12CCC(C1)C(C)(C)C2OC(=O)c1ccccc1C(=O)O (configuration not stated)	inconclusive: 56.6%
CC(Sc1nnc(C(F)(F)F)n1C)C(=O)Nc1ccc(S(N)(=O)=O)cc1 (configuration not stated)	inconclusive: 85.2%
CN1CCN(c2oc(Cc3cccc4ccccc34)nc2C#N)CC1	inconclusive: 97.2%
CCN1CCN(Cc2ccc(NC(=O)c3cc(NC(=O)c4cncc(-c5ccc(C#N)cc5)c4)cc(OC)c3)cc2C(F)(F)F)CC1	inconclusive: 82.3%
COC(=O)CC1=C(C(=O)OC)[C@@H](c2ccccc2[N+](=O)[O-])C(C#N)=C(N)O1	inconclusive: 85%
CC(C)C(=O)N1CCN(c2ccccc2NC(=S)NC(=O)c2cccs2)CC1	inconclusive: 106%
Clc1ccc(-c2nnc(COc3ncnc4ccccc34)o2)cc1	inconclusive: 96.1%
CSCCCNC(=O)c1ccc(OC2CCN(C(=O)c3cccnc3)CC2)cc1	inconclusive: 98.9%
O=C1CC2(CC(c3ccc(Cl)cc3)=NO2)C(=O)N1c1ccccc1 (configuration not stated)	inconclusive: -144%
O=C1CCc2ccccc2N1	inconclusive: 74.9%
CC(C)(C)C(=O)N1CCN(c2nc3ccccc3o2)CC1	inactive: 97.3%
Cc1ccc(NC(=O)Nc2cccc(Cl)c2)c(C(=O)O)c1	inconclusive: 102%
C=C(C(=O)c1ccccc1)C(C(=C)C(=O)c1ccccc1)c1ccc(OC)cc1	inconclusive: -128%
CCNC(=O)NC(=O)C(C)OC(=O)[C@H](C)NS(=O)(=O)c1c(C)c(C)cc(C)c1C (some centres not stated)	inconclusive: 75.1%
COC(=O)c1ccc(NC(=S)N(Cc2cccnc2)Cc2ccco2)cc1	inactive: 106%
Cc1ccc(CN2CCN(Cc3cnc(C)[nH]3)CC2CCO)cc1 (configuration not stated)	inactive: 103%
CCC(=O)N1CCN(c2cc(NCC3CCCO3)c(F)cc2[N+](=O)[O-])CC1 (configuration not stated)	inconclusive: 86.4%
Cc1ccc(S(=O)(=O)Oc2ccc(C3C4=C(CCCC4=O)N(CCC(=O)O)C4=C3C(=O)CCC4)cc2Cl)cc1	inactive: 99.1%
Cn1c2ccccc2c2ncn(Cc3ccc(F)cc3)c(=O)c21	inconclusive: 114%

Eleven consecutive compounds already listed, quoted:
Compound	binding response (% of control)
Clc1ccc(-c2nnc(COc3ncnc4ccccc34)o2)cc1	inconclusive: 96.1%
CSCCCNC(=O)c1ccc(OC2CCN(C(=O)c3cccnc3)CC2)cc1	inconclusive: 98.9%
O=C1CC2(CC(c3ccc(Cl)cc3)=NO2)C(=O)N1c1ccccc1 (configuration not stated)	inconclusive: -144%
O=C1CCc2ccccc2N1	inconclusive: 74.9%
CC(C)(C)C(=O)N1CCN(c2nc3ccccc3o2)CC1	inactive: 97.3%
Cc1ccc(NC(=O)Nc2cccc(Cl)c2)c(C(=O)O)c1	inconclusive: 102%
C=C(C(=O)c1ccccc1)C(C(=C)C(=O)c1ccccc1)c1ccc(OC)cc1	inconclusive: -128%
CCNC(=O)NC(=O)C(C)OC(=O)[C@H](C)NS(=O)(=O)c1c(C)c(C)cc(C)c1C (some centres not stated)	inconclusive: 75.1%
COC(=O)c1ccc(NC(=S)N(Cc2cccnc2)Cc2ccco2)cc1	inactive: 106%
Cc1ccc(CN2CCN(Cc3cnc(C)[nH]3)CC2CCO)cc1 (configuration not stated)	inactive: 103%
CCC(=O)N1CCN(c2cc(NCC3CCCO3)c(F)cc2[N+](=O)[O-])CC1 (configuration not stated)	inconclusive: 86.4%

The list goes on.

Compound	binding response (% of control)
CC(=O)Nc1ccc(Nc2nc3ccccc3nc2NS(=O)(=O)c2ccccc2)cc1	inconclusive: 108%
COc1ccc(C(=O)OCC(=O)N2CCCC2=O)c(OC)c1	inactive: 104%
O=C(c1ccc(Oc2ccccc2)cc1)C1CCCN(C(=O)c2cnccn2)C1 (configuration not stated)	inconclusive: 89.2%
O=C(CSc1nnnn1C1CCCCC1)Nc1ccc(F)cc1	inactive: 108%
c1ccc(-c2nc[nH]c2-c2ccccc2)cc1	inconclusive: 121%
Cc1ccccc1Nc1ncnc2c1cnn2Cc1ccccc1	inconclusive: -195%
N=c1ccn(Cc2ccc([N+](=O)[O-])cc2)cc1	inconclusive: 104%
NNC(=O)CN1CCN(c2ncc(C(F)(F)F)cc2Cl)CC1	inactive: 99.5%
COc1ccc(NC(=O)Cn2c(=O)oc3ccccc32)cc1	inconclusive: 58.6%
CC1=CC2=NC(=O)/C(=C/c3coc4ccc(Cl)cc4c3=O)C(=N)N2O1	inconclusive: 93.8%
COc1ccc(C(=O)NCCCOc2cccc(NC(C)=O)c2)cc1	inconclusive: 96.5%
O=C(CN1C(=O)c2ccccc2C1=O)NCCOc1ccccc1	inconclusive: 68.6%
COc1cc(/C=N/N(C)c2ccccc2)cc(Cl)c1O	inactive: 95.7%
CC(C)(O)CNC(=O)Nc1ccc(Cl)c(Cl)c1	inconclusive: 57.6%
CCc1ccc(C(=O)Nc2cccnc2Oc2ccc(Cl)cc2)cc1	inconclusive: 115%
Nc1nc(NCCN2CCOCC2)nc(NCc2ccccc2)c1[N+](=O)[O-]	inconclusive: 136%
COc1cc(/C=N/n2c(-c3n[nH]c4c3CCC4)n[nH]c2=S)cc(OC)c1O	inconclusive: 100%
Cc1cc(NS(=O)(=O)c2ccc(NC(=O)CSc3nc4ncc(Br)cc4[nH]3)cc2)nc(C)n1	inconclusive: 110%
O=C(Nc1nnc(-c2ccncc2)o1)c1ccccc1F	inconclusive: 103%

Compound	binding response (% of control)
S=C(NC1CCCCC1)N1CCc2[nH]c3ccccc3c2C1	inconclusive: 101%
COc1cccc(/C=N/NC(=O)c2oc3nc(-c4ccccc4)cc(-c4ccco4)c3c2N)c1	inconclusive: 86.5%
O=C(N/N=C/c1cc(Cl)cc([N+](=O)[O-])c1O)NC12CC3CC(CC(C3)C1)C2	inactive: 96%
O=C1c2ccccc2C(=O)N1CCCCN(C(=O)c1cc([N+](=O)[O-])cc([N+](=O)[O-])c1)c1ccc(Cl)cc1	inactive: 88.7%
COc1ccccc1NC(=O)c1cc2cc(Br)ccc2cc1O	inconclusive: 65.3%
Cc1ccc(NC(=O)Cn2cc(C(F)(F)F)cc(Cl)c2=O)cc1Cl	inactive: 93.7%
COC(=O)Nc1nn(-c2ccc(C)cc2)c(=O)c(C#N)c1C	inactive: 102%
COc1ccc(/C=C/C(=O)N2CCNC(=O)C2)c(OC)c1	inconclusive: 120%
COc1ccc(OC)c(NC(=O)C2C3CC4OC(=O)C2C4C3)c1 (configuration not stated)	inactive: 102%
CCO[C@@H]1OC(C(=O)NC2CC2)=C[C@H](C)[C@H]1CCCO	inconclusive: 106%
COc1ccccc1NC(=O)C1CCCCC1	active: 158% [activator]
Cc1cc(NC(=O)Cc2ccccc2)ccc1NC(=O)c1cccs1	inactive: 106%
Cc1ccc(SC[C@H](c2ccccc2)N2CCN(CC(C)C)CCC2=O)cc1	inconclusive: 86.3%
O=C(CN1C(=O)COc2ccccc21)N(Cc1ccc2c(c1)OCO2)CC1CCCO1 (configuration not stated)	inactive: 98.2%
O=C(c1ccc(Cn2cc(Br)cn2)o1)N1N=C(C(F)F)CC1(O)C(F)F (configuration not stated)	inactive: 145%
COc1cc(NC(=O)c2ccc(COc3ccccc3Br)o2)cc(OC)c1OC	inactive: 126%
CC(NCc1cccs1)c1ccccc1 (configuration not stated)	inactive: 94.4%
CC(C)Cc1nc2oc3c(NCC(C)O)ncnc3c2c2c1CCCC2 (configuration not stated)	inconclusive: 120%
CC(C)(C)c1ccc(Oc2ccc(NC(=O)CCCC(=O)O)cn2)cc1	inconclusive: 71.5%
